Test results as given in the supplement of paper PMC6078165.
The reference is the same well before dosing, and untreated signal decays as well.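 Fibroblast labels denote human fibroblasts, mainly primary ones from uterus (C12385, HUF), lung (H6013), bone (Hs27A), adrenal (HADF) and skin (WS1), plus mammary HMF and breast cancer-associated Hs343T. Cancer cells are basal-like or mesenchymal-like triple-negative breast cancer lines. A hit is a response shift exceeding 3x replicate standard deviation. The tissue of the other fibroblasts is not given here.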

System: Hs578T
Assay: relative JC-1 red fluorescence (viability) vs pre-drug, coculture with fibroblast (fraction); higher = more viable cancer cells
Experimental: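 JC-1 labelled TNBC cells cocultured 1:1 (1,500 cells each) with CellTrace Violet stained primary or stromal fibroblasts in 384-well plates in FluoroBrite medium, treated with one of 42 anticancer drugs at 0.1, 1, 10 or 100 uM. JC-1 red fluorescence (mitochondrial integrity in cancer cells only) was read by plate reader every 8 h for 72 h. Values are normalised to each well's pre-drug value. The stock of one drug was tenfold lower, so its dose labels may be too high.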

CN(Cc1cnc2nc(N)nc(N)c2n1)c1ccc(C(=O)N[C@@H](CCC(=O)O)C(=O)O)cc1 [Methotrexate]
relative JC-1 red fluorescence
Settings	8 h	16 h	24 h	32 h	40 h	48 h	56 h	64 h	72 h
0.1 µM	0.929	0.801	0.738	0.695	0.63	0.595	0.585	0.555	0.558
1 µM	0.901	0.774	0.73	0.686	0.636	0.6	0.599	0.578	0.578

relative JC-1 red fluorescence
Settings	8 h	16 h	24 h	32 h	40 h	48 h	56 h	64 h	72 h
0.1 µM, coculture fibroblast: C12385	0.832	0.71	0.673	0.582	0.531	0.5073	0.485	0.491	0.487
0.1 µM, coculture fibroblast: H6013	0.905	0.823	0.78	0.765	0.729	0.716	0.695	0.696	0.671
0.1 µM, coculture fibroblast: H6019	0.767	0.677	0.669	0.584	0.551	0.531	0.501	0.492	0.473
0.1 µM, coculture fibroblast: H6076	0.9145	0.797	0.7554	0.741	0.694	0.688	0.666	0.659	0.666
0.1 µM, coculture fibroblast: H6231	0.904	0.803	0.687	0.649	0.573	0.548	0.508	0.486	0.466
0.1 µM, coculture fibroblast: HADF	0.92	0.846	0.763	0.723	0.683	0.657	0.6301	0.6231	0.597
0.1 µM, coculture fibroblast: HCFa	0.8719	0.78104	0.719	0.668	0.607	0.577	0.538	0.519	0.484
0.1 µM, coculture fibroblast: HCPF	0.911	0.7898	0.731	0.702	0.646	0.623	0.602	0.57	0.545
0.1 µM, coculture fibroblast: HHSteC	0.896	0.809	0.76	0.728	0.686	0.653	0.628	0.611	0.571
0.1 µM, coculture fibroblast: HMF	0.947	0.852	0.831	0.819	0.774	0.759	0.719	0.704	0.694
0.1 µM, coculture fibroblast: HPFa	0.954	0.866	0.817	0.793	0.776	0.762	0.738	0.729	0.703
0.1 µM, coculture fibroblast: HUF	0.881	0.741	0.703	0.603	0.544	0.505	0.477	0.467	0.458
0.1 µM, coculture fibroblast: Hs27A	0.8826	0.799	0.724	0.677	0.63	0.624	0.598	0.602	0.571
0.1 µM, coculture fibroblast: Hs343T	0.9125	0.7617	0.738	0.73	0.668	0.655	0.634	0.618	0.628
0.1 µM, coculture fibroblast: WS1	0.823	0.68	0.639	0.557	0.501	0.4849	0.462	0.463	0.465
1 µM, coculture fibroblast: C12385	0.8314	0.689	0.644	0.557	0.498	0.468	0.452	0.446	0.45
1 µM, coculture fibroblast: H6013	0.9332	0.862	0.83	0.819	0.783	0.781	0.761	0.77	0.778
1 µM, coculture fibroblast: H6019	0.769	0.662	0.648	0.556	0.518	0.491	0.462	0.448	0.428
1 µM, coculture fibroblast: H6076	0.8936	0.7968	0.763	0.75	0.706	0.697	0.686	0.673	0.67
1 µM, coculture fibroblast: H6231	0.8881	0.809	0.706	0.67	0.599	0.571	0.532	0.508	0.497
1 µM, coculture fibroblast: HADF	0.932	0.8275	0.784	0.758	0.74	0.726	0.699	0.704	0.685
1 µM, coculture fibroblast: HCFa	0.90992	0.844	0.806	0.762	0.711	0.699	0.669	0.65	0.606
1 µM, coculture fibroblast: HCPF	0.944	0.849	0.806	0.77	0.723	0.714	0.708	0.661	0.619
1 µM, coculture fibroblast: HHSteC	0.912	0.798	0.729	0.685	0.629	0.588	0.556	0.53	0.493
1 µM, coculture fibroblast: HMF	0.884	0.751	0.721	0.693	0.6425	0.613	0.585	0.557	0.551
1 µM, coculture fibroblast: HPFa	0.94708	0.8511	0.7923	0.748	0.724	0.695	0.652	0.638	0.608
1 µM, coculture fibroblast: HUF	0.8996	0.738	0.74	0.643	0.595	0.563	0.53	0.52	0.522
1 µM, coculture fibroblast: Hs27A	0.8681	0.8011	0.72	0.68	0.638	0.6343	0.607	0.617	0.586
1 µM, coculture fibroblast: Hs343T	0.975	0.8644	0.823	0.797	0.722	0.691	0.659	0.632	0.622
1 µM, coculture fibroblast: WS1	0.82	0.698	0.654	0.576	0.521	0.504	0.485	0.481	0.484
